Measurements as given in publication PMC8396726.
These are yes or no findings as the source states them, for the method shown. In cells and extracts the contact can be indirect. Here binding means that the protein was enriched with, or labelled near, the bait; the list need not be complete. For some assays here: No binding means not detected with the bait. For some assays here: Tags and fused reporters may be left off the sequences shown.

By UniProt entry, the sequences of proteins in these tests, tags left out.
UniProt Q8IB67: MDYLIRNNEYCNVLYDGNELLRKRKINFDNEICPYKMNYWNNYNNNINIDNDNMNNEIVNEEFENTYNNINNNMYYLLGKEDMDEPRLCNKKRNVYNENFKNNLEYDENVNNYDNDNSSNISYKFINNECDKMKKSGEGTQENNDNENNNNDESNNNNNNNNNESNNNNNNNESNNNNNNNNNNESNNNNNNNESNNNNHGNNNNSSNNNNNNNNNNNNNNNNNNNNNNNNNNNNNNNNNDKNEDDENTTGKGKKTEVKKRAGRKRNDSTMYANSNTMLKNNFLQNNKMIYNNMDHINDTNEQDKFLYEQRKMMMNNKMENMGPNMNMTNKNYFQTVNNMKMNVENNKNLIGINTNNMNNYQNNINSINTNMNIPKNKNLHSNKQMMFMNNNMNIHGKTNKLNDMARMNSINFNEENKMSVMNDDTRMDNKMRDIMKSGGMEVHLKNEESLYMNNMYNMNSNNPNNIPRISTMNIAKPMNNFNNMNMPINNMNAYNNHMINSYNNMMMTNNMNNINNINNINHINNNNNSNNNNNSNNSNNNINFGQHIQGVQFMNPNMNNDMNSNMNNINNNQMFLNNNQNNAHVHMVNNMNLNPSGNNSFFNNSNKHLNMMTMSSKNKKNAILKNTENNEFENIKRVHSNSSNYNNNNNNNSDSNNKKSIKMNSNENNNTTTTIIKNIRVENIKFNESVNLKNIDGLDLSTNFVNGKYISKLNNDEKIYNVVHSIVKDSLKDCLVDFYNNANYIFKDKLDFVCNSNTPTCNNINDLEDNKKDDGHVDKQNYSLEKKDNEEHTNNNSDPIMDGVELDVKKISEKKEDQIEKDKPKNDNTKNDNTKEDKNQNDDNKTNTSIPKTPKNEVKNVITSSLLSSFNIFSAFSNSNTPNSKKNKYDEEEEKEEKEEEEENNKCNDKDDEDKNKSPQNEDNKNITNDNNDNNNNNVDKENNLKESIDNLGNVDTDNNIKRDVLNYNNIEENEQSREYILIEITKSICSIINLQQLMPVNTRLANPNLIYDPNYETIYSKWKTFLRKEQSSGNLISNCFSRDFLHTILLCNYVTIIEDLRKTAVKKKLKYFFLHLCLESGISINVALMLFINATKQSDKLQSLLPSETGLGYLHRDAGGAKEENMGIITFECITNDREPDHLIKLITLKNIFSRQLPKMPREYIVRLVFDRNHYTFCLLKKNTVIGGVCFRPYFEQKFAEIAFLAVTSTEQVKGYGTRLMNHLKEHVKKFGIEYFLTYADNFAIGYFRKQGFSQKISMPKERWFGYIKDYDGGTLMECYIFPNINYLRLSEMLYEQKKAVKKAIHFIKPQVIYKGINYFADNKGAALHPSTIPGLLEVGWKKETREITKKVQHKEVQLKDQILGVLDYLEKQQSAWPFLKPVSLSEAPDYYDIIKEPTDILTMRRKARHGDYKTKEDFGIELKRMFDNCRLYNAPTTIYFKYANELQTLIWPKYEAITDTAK
UniProt Q8IJW2: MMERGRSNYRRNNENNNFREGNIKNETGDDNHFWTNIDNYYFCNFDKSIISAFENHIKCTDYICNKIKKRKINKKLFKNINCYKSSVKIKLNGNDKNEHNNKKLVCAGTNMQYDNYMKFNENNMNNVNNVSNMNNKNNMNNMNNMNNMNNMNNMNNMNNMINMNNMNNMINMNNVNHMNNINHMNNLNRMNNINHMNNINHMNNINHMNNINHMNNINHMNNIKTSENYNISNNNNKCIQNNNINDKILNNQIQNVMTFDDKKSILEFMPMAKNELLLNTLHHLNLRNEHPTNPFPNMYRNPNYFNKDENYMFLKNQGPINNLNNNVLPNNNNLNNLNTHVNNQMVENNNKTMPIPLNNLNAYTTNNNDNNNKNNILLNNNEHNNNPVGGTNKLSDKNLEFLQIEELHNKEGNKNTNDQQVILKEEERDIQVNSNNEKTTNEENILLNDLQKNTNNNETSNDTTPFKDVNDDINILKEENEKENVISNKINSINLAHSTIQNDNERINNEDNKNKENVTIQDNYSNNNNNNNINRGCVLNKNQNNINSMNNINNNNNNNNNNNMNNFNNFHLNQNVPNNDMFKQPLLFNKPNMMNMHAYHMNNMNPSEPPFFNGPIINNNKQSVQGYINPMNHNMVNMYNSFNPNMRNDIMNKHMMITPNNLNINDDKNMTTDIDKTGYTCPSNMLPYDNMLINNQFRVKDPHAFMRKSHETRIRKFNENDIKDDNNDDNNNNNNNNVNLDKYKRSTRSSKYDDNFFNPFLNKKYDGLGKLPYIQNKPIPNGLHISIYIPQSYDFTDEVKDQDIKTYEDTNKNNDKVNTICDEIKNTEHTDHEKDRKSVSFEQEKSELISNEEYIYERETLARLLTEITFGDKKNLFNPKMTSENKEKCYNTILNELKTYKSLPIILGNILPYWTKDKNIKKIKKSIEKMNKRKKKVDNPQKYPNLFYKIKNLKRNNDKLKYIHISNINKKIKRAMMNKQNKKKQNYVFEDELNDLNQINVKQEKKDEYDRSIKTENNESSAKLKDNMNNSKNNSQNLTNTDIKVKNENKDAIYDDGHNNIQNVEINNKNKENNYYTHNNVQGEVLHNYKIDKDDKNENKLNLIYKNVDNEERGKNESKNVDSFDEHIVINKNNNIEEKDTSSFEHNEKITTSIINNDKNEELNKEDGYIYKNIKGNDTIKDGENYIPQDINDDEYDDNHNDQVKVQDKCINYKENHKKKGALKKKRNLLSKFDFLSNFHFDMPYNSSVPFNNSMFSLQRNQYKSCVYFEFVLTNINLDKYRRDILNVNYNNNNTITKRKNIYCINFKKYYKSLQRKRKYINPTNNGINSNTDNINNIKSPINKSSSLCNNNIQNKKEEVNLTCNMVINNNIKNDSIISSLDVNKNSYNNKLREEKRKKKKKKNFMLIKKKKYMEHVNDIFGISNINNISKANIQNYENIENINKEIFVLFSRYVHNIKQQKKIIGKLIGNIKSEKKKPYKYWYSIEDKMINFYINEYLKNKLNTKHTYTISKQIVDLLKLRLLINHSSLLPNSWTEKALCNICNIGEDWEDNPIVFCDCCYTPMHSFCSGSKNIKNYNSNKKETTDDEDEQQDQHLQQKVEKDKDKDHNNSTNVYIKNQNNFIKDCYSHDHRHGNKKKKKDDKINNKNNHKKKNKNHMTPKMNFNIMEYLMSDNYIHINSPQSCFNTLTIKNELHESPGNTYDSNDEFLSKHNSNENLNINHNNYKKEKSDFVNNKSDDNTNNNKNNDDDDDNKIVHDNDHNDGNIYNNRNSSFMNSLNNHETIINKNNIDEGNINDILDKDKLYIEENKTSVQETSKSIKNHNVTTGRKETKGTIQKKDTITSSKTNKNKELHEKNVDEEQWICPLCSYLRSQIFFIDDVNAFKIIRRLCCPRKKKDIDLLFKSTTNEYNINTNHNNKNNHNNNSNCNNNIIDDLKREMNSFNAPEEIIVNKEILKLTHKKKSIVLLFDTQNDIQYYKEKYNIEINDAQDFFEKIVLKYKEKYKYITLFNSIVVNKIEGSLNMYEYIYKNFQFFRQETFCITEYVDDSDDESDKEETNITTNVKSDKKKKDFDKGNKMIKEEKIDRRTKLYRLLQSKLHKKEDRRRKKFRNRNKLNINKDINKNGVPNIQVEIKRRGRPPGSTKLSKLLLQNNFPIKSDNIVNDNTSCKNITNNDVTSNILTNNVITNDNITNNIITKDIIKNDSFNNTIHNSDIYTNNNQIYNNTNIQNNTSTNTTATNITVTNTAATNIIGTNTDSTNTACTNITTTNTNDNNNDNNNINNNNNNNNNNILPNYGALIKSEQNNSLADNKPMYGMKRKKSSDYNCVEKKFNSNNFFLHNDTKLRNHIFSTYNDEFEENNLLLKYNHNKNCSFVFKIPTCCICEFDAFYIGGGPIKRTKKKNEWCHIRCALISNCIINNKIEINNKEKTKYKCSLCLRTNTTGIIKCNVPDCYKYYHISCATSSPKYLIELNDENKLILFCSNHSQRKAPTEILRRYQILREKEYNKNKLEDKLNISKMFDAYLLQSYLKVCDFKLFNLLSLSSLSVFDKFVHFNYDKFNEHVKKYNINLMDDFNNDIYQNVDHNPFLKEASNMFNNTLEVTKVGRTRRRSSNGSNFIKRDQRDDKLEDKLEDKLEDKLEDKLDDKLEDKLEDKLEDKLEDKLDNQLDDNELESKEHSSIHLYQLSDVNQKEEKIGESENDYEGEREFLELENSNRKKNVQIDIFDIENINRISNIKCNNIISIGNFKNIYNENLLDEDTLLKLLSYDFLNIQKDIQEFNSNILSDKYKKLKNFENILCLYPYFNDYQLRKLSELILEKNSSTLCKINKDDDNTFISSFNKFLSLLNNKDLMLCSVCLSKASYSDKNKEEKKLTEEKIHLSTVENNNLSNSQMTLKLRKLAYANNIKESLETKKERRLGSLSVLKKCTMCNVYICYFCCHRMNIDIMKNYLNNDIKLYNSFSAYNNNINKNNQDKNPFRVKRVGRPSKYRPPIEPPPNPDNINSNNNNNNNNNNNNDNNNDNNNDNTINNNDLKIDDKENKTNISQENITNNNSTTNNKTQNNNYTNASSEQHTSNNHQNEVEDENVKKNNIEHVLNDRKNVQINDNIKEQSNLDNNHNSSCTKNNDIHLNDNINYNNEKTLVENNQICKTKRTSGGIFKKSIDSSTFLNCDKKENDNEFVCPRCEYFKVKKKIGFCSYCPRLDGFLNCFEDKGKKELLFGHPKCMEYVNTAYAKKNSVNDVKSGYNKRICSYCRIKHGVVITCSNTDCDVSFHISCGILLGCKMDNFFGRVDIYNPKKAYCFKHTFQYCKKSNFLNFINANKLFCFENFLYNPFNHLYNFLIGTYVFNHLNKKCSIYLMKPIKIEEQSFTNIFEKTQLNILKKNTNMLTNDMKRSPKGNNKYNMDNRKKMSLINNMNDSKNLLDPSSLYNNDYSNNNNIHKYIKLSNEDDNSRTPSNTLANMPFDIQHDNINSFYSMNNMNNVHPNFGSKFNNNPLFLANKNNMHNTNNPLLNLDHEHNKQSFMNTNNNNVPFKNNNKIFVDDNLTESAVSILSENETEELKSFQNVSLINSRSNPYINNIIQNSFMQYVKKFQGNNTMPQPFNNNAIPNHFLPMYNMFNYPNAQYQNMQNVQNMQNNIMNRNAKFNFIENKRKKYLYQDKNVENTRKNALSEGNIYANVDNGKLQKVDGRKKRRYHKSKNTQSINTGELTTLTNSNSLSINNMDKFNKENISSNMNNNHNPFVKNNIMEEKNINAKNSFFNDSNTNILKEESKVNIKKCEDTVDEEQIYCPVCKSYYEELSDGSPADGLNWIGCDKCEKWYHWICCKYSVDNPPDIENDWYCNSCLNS

Key:
[1] = biological target: T1, PF3D7_1019700::GFP (P. falciparum 3D7) (UniProt Q8IJK5); assay: affinity purification with mass spectrometry; single-step IP with anti-GFP (GFP-trap) beads from nuclear extracts of PF3D7_1019700::GFP parasites; LC-MS/MS; two replicates; SAINT probability >94%, 1% FDR; WT 3D7 as control
T1 sequence: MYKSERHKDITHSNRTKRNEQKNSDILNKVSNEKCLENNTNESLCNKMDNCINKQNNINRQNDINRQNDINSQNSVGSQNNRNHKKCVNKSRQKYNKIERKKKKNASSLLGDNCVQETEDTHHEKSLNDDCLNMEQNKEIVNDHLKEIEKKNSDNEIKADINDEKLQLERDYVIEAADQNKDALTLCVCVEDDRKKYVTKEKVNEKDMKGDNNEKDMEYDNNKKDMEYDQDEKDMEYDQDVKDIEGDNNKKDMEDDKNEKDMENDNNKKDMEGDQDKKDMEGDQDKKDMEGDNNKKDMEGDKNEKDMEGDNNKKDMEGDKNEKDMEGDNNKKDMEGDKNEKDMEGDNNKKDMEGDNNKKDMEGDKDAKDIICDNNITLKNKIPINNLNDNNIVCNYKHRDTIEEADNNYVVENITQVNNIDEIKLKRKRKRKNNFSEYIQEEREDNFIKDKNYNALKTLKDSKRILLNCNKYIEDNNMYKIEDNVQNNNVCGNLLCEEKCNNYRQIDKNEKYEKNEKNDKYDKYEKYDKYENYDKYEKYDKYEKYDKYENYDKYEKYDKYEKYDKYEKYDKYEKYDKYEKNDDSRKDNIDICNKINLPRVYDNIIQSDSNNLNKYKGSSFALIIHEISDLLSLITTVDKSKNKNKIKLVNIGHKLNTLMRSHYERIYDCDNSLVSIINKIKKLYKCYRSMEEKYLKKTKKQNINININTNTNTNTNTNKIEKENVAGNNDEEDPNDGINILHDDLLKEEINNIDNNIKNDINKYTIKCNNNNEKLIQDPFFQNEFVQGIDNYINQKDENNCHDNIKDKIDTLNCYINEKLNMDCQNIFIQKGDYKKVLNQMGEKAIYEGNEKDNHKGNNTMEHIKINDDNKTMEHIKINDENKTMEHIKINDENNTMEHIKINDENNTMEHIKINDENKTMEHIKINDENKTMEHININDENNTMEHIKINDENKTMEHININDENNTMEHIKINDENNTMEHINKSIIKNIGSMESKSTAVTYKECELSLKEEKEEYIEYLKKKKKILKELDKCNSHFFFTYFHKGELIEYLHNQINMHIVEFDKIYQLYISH

[2] = biological target: PfPHD1-ΔPHD::GFP (P. falciparum 3D7); assay: affinity purification with mass spectrometry; IP with GFP-Trap from trophozoite nuclear extracts of the PfGCN5::GFP, GCN5-ΔBrD::GFP and PHD1-ΔPHD::GFP lines; LC-MS/MS; SAINT probability >94%, FDR <1%
[3] = biological target: PfGCN5-ΔBrD::GFP (P. falciparum 3D7); assay: as above
[4] = biological target: PfGCN5::GFP (P. falciparum) (UniProt Q8IB67); assay: as above
[5] = biological target: PfPHD1::Myc (P. falciparum 3D7) (UniProt Q8IJW2); assay: affinity purification with mass spectrometry; single-step pulldown with Myc-trap beads from trophozoite nuclear extracts of PfPHD1::Myc parasites; LC-MS/MS; SAINT probability >94%, 1% FDR; WT 3D7 as control

B1: bromodomain protein 1 (BDP1) (protein, UniProt Q8IJ72 1-488)
chain: MMLEDFNTLPLIKSIREDSLDDVLKFLENNYKDYEVNENGEAKKTIELVDKQTQATPLFYVTARKSDEESVEISKLIIEKYAICNPISKDLMKQTCLFYAAREGHLNLCNYLIEKGCNPNDQDNFGQTCLFYASREGKTDCVLTLIKKGANPNLLDLNKQTCLFYACRDGRYDTVKCLLENGVNPSIKDAQRRTALTFAKGNGHNNIINLLKNVGTLSRSSIDSNAQLGNITMLRRNSSSYIAASSPNESNLNNLTVQAENVSNVNLKTEDNQLRKKYKLQYKPLSDEDPLLWVDAPLIKIKEFERKFPELALWPRNVSQSNVEVNNANDAFNKQWYLLANQLILSLSKYEGGHIFEKLVDAKKQNCPDYYDVIKNPMSFSCIKTKLKKGQYAYPSEFVKDVQLIFDNCSLYNTSNSVVAITGKNIETYFNNQLIVMGYNNFILKEKKINDMLKLVEEENIKWSKEKEDQIEEIDELENNQEDSSKKD
[1]
  binding: binds
[2]
  binding: no binding
[3]
  binding: no binding
[4]
  binding: binds
[5]
  binding: binds
